Literature values, collected in patent publication US6809102B2, “Cyano-substituted dihydropyrimidine compounds and their use to treat diseases” (Bristol-Myers Squibb Company, priority 2001, dated 2004).
For at least one compound, name, drawing or mass did not settle the structure.

Test system: Eg5
Conditions: in vitro assay

CCOC(=O)C1=C(C)NC(=S)NC1c1cccc(O)c1 (stereo not shown) [monastrol]
inhibition of Eg5 motor-driven motility of microtubules: inhibit the Eg5 motor-driven motility of microtubules
